Experiment in all cases: co-IP; COS7 cells co-transfected with GlyT2 and tagged LNX; lysed in TN buffer (25 mM Tris HCl, 150 mM NaCl, pH 7.4) with 0.25% NP-40; immunoprecipitation with rat anti-GlyT2, anti-c-Myc or anti-FLAG M2 overnight at 4 °C, protein G agarose; Western blot
On the technique in general: Immunoblotting shows a protein as a band on a membrane.

Experiment [1] concerns the target T1, neuronal glycine transporter GlyT2 (rat) (UniProt P58295).
T1 sequence: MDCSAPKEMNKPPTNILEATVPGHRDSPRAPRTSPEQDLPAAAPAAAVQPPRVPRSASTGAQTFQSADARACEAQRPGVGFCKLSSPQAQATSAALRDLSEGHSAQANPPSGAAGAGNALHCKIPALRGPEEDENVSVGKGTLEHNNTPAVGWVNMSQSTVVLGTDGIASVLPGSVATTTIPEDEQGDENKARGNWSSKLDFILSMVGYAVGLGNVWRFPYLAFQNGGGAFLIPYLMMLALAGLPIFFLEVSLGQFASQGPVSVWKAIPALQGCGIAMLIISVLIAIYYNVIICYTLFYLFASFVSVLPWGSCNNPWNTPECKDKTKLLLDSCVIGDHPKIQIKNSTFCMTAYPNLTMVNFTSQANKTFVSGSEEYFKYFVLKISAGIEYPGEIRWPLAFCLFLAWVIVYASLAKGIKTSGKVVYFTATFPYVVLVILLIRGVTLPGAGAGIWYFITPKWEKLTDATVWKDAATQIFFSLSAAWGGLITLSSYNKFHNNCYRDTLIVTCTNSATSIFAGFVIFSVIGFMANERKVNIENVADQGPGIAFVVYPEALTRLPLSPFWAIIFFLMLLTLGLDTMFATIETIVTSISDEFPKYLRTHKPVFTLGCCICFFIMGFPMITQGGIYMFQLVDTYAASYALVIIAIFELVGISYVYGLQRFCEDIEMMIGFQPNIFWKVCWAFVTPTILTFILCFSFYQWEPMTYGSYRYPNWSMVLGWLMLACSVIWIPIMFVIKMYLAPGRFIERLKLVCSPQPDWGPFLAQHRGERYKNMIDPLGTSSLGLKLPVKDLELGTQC

The target in experiment [2] is T2, FLAG-tagged LNX1-p80 isoform (UniProt O70263).
T2 sequence: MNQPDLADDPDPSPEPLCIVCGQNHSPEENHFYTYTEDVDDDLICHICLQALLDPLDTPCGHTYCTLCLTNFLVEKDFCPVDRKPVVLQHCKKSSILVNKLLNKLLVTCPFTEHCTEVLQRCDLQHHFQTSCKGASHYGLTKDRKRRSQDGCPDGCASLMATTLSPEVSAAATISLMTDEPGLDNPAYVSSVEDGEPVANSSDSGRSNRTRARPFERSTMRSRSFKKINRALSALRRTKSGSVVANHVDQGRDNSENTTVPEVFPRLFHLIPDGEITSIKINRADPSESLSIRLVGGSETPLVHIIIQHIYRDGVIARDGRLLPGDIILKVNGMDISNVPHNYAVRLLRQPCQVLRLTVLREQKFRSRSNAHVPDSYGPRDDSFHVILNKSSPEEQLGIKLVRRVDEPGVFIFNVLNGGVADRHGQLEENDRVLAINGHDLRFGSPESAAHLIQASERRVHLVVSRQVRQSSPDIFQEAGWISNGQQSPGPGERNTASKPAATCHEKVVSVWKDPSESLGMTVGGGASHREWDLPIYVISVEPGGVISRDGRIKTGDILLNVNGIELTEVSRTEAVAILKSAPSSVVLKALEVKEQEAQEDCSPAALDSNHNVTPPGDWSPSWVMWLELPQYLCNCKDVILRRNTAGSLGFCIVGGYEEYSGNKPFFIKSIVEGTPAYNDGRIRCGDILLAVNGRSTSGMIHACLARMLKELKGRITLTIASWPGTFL

The target in experiment [3] is T3, Myc-tagged LNX1-p70 (mouse) (UniProt O70263).
T3 sequence: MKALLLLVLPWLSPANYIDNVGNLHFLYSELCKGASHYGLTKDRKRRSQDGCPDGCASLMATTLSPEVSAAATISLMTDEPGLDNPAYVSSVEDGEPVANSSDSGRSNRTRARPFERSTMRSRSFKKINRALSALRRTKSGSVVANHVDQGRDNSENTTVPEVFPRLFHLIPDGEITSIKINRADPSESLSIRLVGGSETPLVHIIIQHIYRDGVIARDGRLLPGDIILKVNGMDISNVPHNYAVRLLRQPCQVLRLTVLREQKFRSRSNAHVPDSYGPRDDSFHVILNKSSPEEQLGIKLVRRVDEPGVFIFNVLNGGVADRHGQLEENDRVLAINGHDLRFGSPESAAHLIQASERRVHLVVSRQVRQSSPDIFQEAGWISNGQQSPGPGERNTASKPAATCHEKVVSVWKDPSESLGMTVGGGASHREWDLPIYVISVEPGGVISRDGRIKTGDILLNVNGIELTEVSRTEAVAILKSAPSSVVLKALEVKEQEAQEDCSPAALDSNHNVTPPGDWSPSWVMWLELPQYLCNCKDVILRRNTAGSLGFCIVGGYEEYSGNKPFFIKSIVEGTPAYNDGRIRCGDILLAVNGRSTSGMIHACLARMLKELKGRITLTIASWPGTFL

In experiment [4] the target is T4, Myc-tagged LNX2 (mouse) (UniProt Q91XL2).
T4 sequence: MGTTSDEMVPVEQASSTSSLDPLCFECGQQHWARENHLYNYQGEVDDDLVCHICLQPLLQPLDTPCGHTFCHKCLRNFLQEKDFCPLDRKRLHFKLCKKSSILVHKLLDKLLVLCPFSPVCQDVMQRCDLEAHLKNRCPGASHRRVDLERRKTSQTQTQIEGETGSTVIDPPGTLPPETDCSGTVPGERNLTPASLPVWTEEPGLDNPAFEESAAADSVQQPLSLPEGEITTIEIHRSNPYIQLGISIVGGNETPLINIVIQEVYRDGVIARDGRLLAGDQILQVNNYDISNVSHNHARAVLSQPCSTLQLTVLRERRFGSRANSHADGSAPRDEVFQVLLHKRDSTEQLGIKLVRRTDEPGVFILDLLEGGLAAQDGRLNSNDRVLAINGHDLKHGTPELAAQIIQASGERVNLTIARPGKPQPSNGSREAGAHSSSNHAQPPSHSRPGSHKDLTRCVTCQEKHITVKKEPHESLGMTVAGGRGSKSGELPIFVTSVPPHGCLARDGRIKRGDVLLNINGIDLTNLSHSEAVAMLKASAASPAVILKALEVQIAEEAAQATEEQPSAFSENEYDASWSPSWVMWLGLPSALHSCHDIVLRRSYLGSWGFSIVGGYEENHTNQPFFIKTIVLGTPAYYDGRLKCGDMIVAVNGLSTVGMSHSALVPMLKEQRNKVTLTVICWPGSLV

These are yes or no findings as the source states them, for the method shown. Binding seen in cells or lysates may run through a third protein. Some binding calls cover weakened binding; strength is not graded here. Tags and fused reporters may be left off the sequences shown.

B1: FLAG-tagged LNX1-p80 isoform (enzyme, UniProt O70263 1-728)
chain: T2 sequence
B1: in experiment [1], the binding entry was “binds”.

B2: Myc-tagged LNX2 (enzyme, UniProt Q91XL2 1-687)
chain: T4 sequence
For B2, the binding entry in experiment [1] is “binds”.

B3: Myc-tagged LNX1-p70 (protein, UniProt O70263-2 1-628)
chain: T3 sequence
Take B3: the binding result in experiment [1] is listed as “binds”.

B4: neuronal glycine transporter GlyT2 (protein, UniProt P58295-1 1-799)
chain: T1 sequence
As for B4, the binding entry in experiment [2], in experiment [3] and in experiment [4] was “binds” in each case.

The record behind these values is paper PMC6802383.
